The nature of the experiment: qHTS Assay for Modulators of Lamin A Splicing. As to conditions: HeLa LMNA splicing GFP/RFP minigene ratio, 48 h. The procedure, abridged: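 S3 HeLa cells stably expressing lamin A-EGFP splicing minigene plus DsRed2, 600 cells/well, 48 h compound exposure at 37C. Laser-scanning cytometry; analysed as GFP (500-530 nm)/RFP (575-640 nm) total intensity ratio; 0.5% DMSO vehicle.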
(In general: In qHTS, concentration-response curves come from the screen itself.)

The mark [1] stands for this setting: measured here: GFP splicing reporter channel.
Setting [2] is: measured here: RFP viability control channel.

“And” between values parts separate entries of the source, which are not always exact repeats. Equal entries are not always repeated. The list shows a part of the results. Further columns of the screen follow, without active or inactive calls. Compounds called inactive in the main read-out are mostly missing here. Words in brackets tell the shape of the fitted curve; partial curves, single points and poor fits give uncertain potencies.

A word on the AC50: it is the concentration at which the activity in the assay is half-maximal. In the case of `Cc1sc2nc(COC(=O)c3ccc(N4CCCC(C)C4)c([N+](=O)[O-])c3)[nH]c(=O)c2c1C` (centres undefined), the AC50 under setting [1] was 15.8 µM [rising, single point].
Take `COc1ccc(C(=O)OC(C)C(=O)Nc2cc(C(F)(F)F)ccc2Cl)c(OC)c1OC` (centres undefined): under setting [2], the concentration at half-maximal activity (AC50) was 31.6 µM [rising, single point].
On to `O=C(CCc1nnc(CCC2CCCCC2)o1)NCCc1cccnc1`, for which the concentration at half-maximal activity (AC50) under setting [1] was 8.91 µM [falling, partial curve] and the AC50 under setting [2] was 10 µM [falling, partial curve, poor fit].
As to `COc1ccccc1NC(=O)N1CCN(c2cccc(C(F)(F)F)c2)CC1`, the AC50 reads like this: under setting [1], 17.8 µM [rising, single point]; under setting [2], 17.8 µM [rising, single point].
For the compound `CCCCOc1ccc(C2=NNC(=O)CC2)cc1`, the AC50 is 7.08 µM [falling, partial curve, poor fit] under setting [1] and 5.62 µM [falling, full curve, poor fit] under setting [2].
Take `CCCCOP(=O)(OCCCC)C1(NS(=O)(=O)c2ccccc2)C=CC(=O)c2ccccc21` (centres undefined): the AC50 was 14.1 µM [rising, single point] under setting [1] and 12.6 µM [rising, single point] under setting [2].
As to `CC(=O)NC(Cc1cccc(F)c1)C(=O)NC1CCN(c2nnnn2-c2ccccc2)CC1` (centres undefined), the AC50 under setting [1] was 0.0158 µM [falling, full curve, poor fit].
As for `COc1ccccc1N1CCN(C(=O)c2ccc3nc(-c4ccco4)c(-c4ccco4)nc3c2)CC1`, under setting [2], the AC50 is 22.4 µM [rising, single point].
As to `S=C(NCc1ccncc1)Nc1ccc(Cl)c(Cl)c1`, the AC50 under setting [1] was 35.5 µM [rising, single point] and the AC50 under setting [2] is 35.5 µM [rising, single point].
As to `Cc1ccc(NC(=O)C2CCN(S(=O)(=O)c3ccc4c(c3)CCCN4C(=O)C3CCC3)CC2)cc1`, the AC50 under setting [1] is 35.5 µM [falling, single point].
Take `CC(/C=C1\SC(=O)N(CCCC(=O)O)C1=O)=C\c1ccccc1`: the AC50 under setting [2] is 35.5 µM [rising, single point].
On to `COc1ccc(NC(=O)Cc2c(F)cccc2Cl)c(OC)c1`, for which the AC50 under setting [1] was 2 µM [rising, partial curve, poor fit] and the AC50 under setting [2] is 6.31 µM [rising, partial curve, poor fit].
For `COc1ccc(-n2cccc2/C=C/[N+](=O)[O-])cc1`, the AC50 under setting [1] is 31.6 µM [rising, single point] and the AC50 under setting [2] was 35.5 µM [rising, single point].
With `C#CC(=O)N(c1cc(OC)ccc1OC)C(C(=O)NC1CCCC1)c1cccs1` (centres undefined), the AC50 was 35.5 µM [falling, single point] under setting [1] and 35.5 µM [falling, single point] under setting [2].
`Cc1ccccc1-c1cncnc1N(C)Cc1ccco1`: the AC50 under setting [1] is 10 µM [rising, partial curve] and the AC50 under setting [2] was 35.5 µM [rising, single point].
On to `N#Cc1c(NC(=O)CCn2cnc3ccccc3c2=O)oc(-c2ccccc2)c1-c1ccccc1`, for which the AC50 is 6.31 µM [rising, partial curve] under setting [1] and 11.2 µM [rising, single point] under setting [2].
As to `CCN(CC)c1ccc(NC(=O)CN2CCN(S(=O)(=O)c3cc(Cl)ccc3OC)CC2)cc1`, the AC50 is, setting by setting: under setting [1], 22.4 µM [rising, single point] and 35.5 µM [falling, single point]; under setting [2], 22.4 µM [rising, single point].
With `O=C1c2ccccc2C(=O)N1c1cccc2cccnc12`, the AC50 under setting [1] is 0.0794 µM [falling, partial curve, poor fit].
Turning to `CC1=CN2C(=NC(=O)CC2(C)C(=O)N(CC(=O)NC2CCCC2)c2cc(C)cc(C)c2)C=C1` (centres undefined), the AC50 under setting [2] was 0.126 µM [falling, full curve].
As for `Cc1cc(C)nc(SCc2ccc(C(=O)N/N=C/c3ccccn3)cc2)n1`, under setting [1], the AC50 is 7.94 µM [falling, partial curve, poor fit].
Turning to `Cc1ccc(CNC(=O)NC23CC4CC(CC(C4)C2)C3)cc1`, under setting [2], the concentration at half-maximal activity (AC50) was 31.6 µM [rising, single point].
Same read-out and setting: the value for `COc1ccc(OC)c(NC(=O)CCn2cccn2)c1` was 0.00794 µM [falling, full curve, poor fit].
As for `CC(=O)NC1=NN(C(C)=O)C(C)(CC(=O)OC(C)(C)C)S1` (centres undefined), the AC50 runs as follows: under setting [1], 0.224 µM [rising, partial curve, poor fit]; under setting [2], 0.0447 µM [rising, full curve, poor fit].
`Cc1ccc(Cn2ccnc2SCC(=O)Nc2ccccc2C(F)(F)F)cc1`: the AC50 under setting [1] is 0.0224 µM [rising, full curve, poor fit].
With `COc1ccc(OC)c(NC(=O)CN(c2ccc(OC)c(Cl)c2)S(C)(=O)=O)c1`, the AC50 under setting [1] was 14.1 µM [rising, single point].
Turning to `Cc1cc(C)n(-c2nc3ccccc3c(=O)n2OCC(=O)N(C)C)n1`, the AC50 under setting [2] was 0.00447 µM [falling, full curve, poor fit].
On the same count and under the same terms, the result for `CCc1nn2c(N)c(/C=C3\C=Nc4ccccc43)c(=O)nc2s1` reads 20 µM [rising, partial curve, poor fit]; that for `Cc1ccccc1Cn1ccc(NC(=O)c2cnn3c(C(F)(F)F)cc(-c4ccco4)nc23)n1`, 15.8 µM [rising, partial curve, poor fit].
Regarding `CCC(=O)OC1CSc2nc3ccccc3n2C1` (centres undefined), the AC50 under setting [1] was 31.6 µM [rising, single point].
Take `COc1ccccc1CNC(=O)C1CCN(S(=O)(=O)c2ccc3[nH]c(=O)ccc3c2)CC1`: the AC50 under setting [1] is 28.2 µM [falling, single point].
As to `Cc1cc(C(=O)C(=O)N(C)C)c(C)n1-c1ccc(Cl)c(Cl)c1`, the AC50 by setting is: under setting [1], 0.398 µM [rising, full curve, poor fit]; under setting [2], 20 µM [rising, partial curve, poor fit].
Regarding `COC(=O)CCCC1=CC2=C(c3ccccc3)C(=O)C(C)(OC(=O)C3CCCC3)C(=O)C2=CN1Cc1ccc2c(c1)OCO2` (centres undefined), the AC50 reads like this: under setting [1], 0.126 µM [rising, partial curve, poor fit]; under setting [2], 5.62 µM [rising, partial curve, poor fit].
As for `Cc1ccc2nc(-c3ccc(NC(=S)NC4CC(C)(C)NC(C)(C)C4)cc3)sc2c1`, the AC50 under setting [2] was 17.8 µM [rising, single point].
Consider `CCCN(CC(=O)Nc1ccc(Cl)cc1Cl)C(=O)/C=C/c1ccco1`, for which the AC50 under setting [2] was 35.5 µM [falling, single point].
On to `Cn1c(CSCc2ccc(F)cc2)nnc1SCC(=O)Nc1nccs1`, for which the AC50 runs as follows: under setting [1], 0.562 µM [rising, full curve]; under setting [2], 17.8 µM [rising, partial curve].
Take `CCc1cc(/C(Cc2ccccn2)=N\O)c(O)cc1O`: the AC50 reads like this: under setting [1], 20 µM [falling, partial curve, poor fit]; under setting [2], 5.62 µM [falling, partial curve, poor fit].
Take `CC(c1cccs1)N(C)Cc1nc(CCc2ccccc2)no1` (centres undefined): the AC50 was 0.316 µM [rising, partial curve, poor fit] under setting [1] and 0.141 µM [rising, full curve, poor fit] under setting [2].
For the compound `CCc1cc(-c2[nH]ncc2-c2ccc3c(c2)OCO3)c(O)cc1O`, under setting [2], the AC50 was 7.08 µM [rising, partial curve].
For `Cc1ccc(C(=O)NCCSCc2ccc(Cl)cc2Cl)cc1[N+](=O)[O-]`, under setting [2], the AC50 was 28.2 µM [rising, partial curve].
Consider `O=C(C1CCCN(S(=O)(=O)c2ccc(Cl)cc2)C1)N(Cc1cccs1)C1CC1` (centres undefined), for which the AC50 was 15.8 µM [rising, partial curve, poor fit] under setting [1] and 17.8 µM [rising, single point] under setting [2].
For `Cc1ccc2[nH]c(C)c(CCNC(=O)c3c(N)no[n+]3[O-])c2c1`, the AC50 is 12.6 µM [rising, single point] under setting [1] and 31.6 µM [rising, single point] under setting [2].
As for `CCOC(=O)C1=C(CSc2nc3ccccc3s2)NC(=O)NC1c1cc(C)ccc1C` (centres undefined), the AC50 is, setting by setting: under setting [1], 12.6 µM [falling, single point]; under setting [2], 12.6 µM [falling, partial curve].
As to `O=C(Nc1nnc(-c2ccc3c(c2)CCCC3)o1)c1ccccc1`, under setting [2], the AC50 was 3.98 µM [rising, full curve].
In the case of `CCOC(=O)c1ccc(NC(=O)COc2cccc3c(=O)n(C)ccc23)cc1`, the AC50 under setting [1] was 35.5 µM [falling, partial curve, poor fit].
Take `C#CCCOC(=O)N1C2=NC(C(=O)OC)=C(C(=O)OC)[C@@H]3N(Cc4ccccc4)c4ccccc4[C@]23C[C@H]1C(=O)OC`: under setting [2], the AC50 is 3.55 µM [rising, single point].
The same measure, in the same setting: the value for `Cc1oc(-c2ccccc2)cc1C(=O)Nc1cccc2ccccc12` was 35.5 µM [rising, single point]; that for `C=CCn1c(SCc2ccc(OC)cc2)nnc1-c1cccnc1` was 11.2 µM [rising, partial curve, poor fit].
As for `O=C(COc1ccc(F)cc1)Nc1ccc(C(=O)OCc2cc(=O)n3nc(C4CC4)sc3n2)cc1`, the half-maximal activity concentration (AC50) is 0.00316 µM [falling, full curve, poor fit] under setting [1] and 0.00316 µM [falling, full curve, poor fit] under setting [2].
Regarding `Cc1nc2ccccn2c1C(=O)CSc1ccc(Cl)cc1Cl`, the half-maximal activity concentration (AC50) is 5.62 µM [rising, single point] under setting [1] and 5.62 µM [rising, single point] under setting [2].
Turning to `CCCCNC(=O)c1sc(=S)n2c1[nH]c(=O)c1ccccc12`, under setting [2], the concentration at half-maximal activity (AC50) was 14.1 µM [rising, single point].
In the case of `COc1cc(Cl)c(C)cc1NC(=O)c1cccc(OC)c1OC`, the AC50 by setting is: under setting [1], 8.91 µM [rising, partial curve, poor fit]; under setting [2], 15.8 µM [rising, partial curve].

The record behind these values is PubChem BioAssay AID1487 (National Center for Advancing Translational Sciences (NCATS), 2009).
